These are yes or no findings as the source states them, for the method shown. Binding seen in cells or lysates may run through a third protein. Some binding calls cover weakened binding; strength is not graded here.
Key:
[1] = target: ELF-1 (human (endogenous in T47D)) (UniProt P32519); assay: co-IP; T47D cells treated with DMSO or E2 (10^-7 mol/L) for 4 h, lysed in RIPA buffer; 1.5 mg lysate, 4 µg anti-c-Myb or anti-ELF-1 overnight at 4°C, protein A/G-agarose, washed 3 times with RIPA; Western blot for ERα; more ERα with E2
[2] = target: c-Myb (human (endogenous in T47D)) (UniProt P10242); assay: as above
[3] = target: ELF-1 (human (endogenous in T47D)) (UniProt P32519); assay: co-IP; T47D cells pretreated with Tamoxifen (10^-6 mol/L) for 30 min before E2 (10^-7 mol/L) for 4 h, lysed; IP with anti-c-Myb or anti-ELF-1, Western blot for ERα
[4] = target: c-Myb (human (endogenous in T47D)) (UniProt P10242); assay: as above

The chains behind the UniProt entries cited, without tags or fusion partners. Where a name states a change or a piece, a line headed by the entry shows the natural chain unless it says otherwise.
UniProt P32519: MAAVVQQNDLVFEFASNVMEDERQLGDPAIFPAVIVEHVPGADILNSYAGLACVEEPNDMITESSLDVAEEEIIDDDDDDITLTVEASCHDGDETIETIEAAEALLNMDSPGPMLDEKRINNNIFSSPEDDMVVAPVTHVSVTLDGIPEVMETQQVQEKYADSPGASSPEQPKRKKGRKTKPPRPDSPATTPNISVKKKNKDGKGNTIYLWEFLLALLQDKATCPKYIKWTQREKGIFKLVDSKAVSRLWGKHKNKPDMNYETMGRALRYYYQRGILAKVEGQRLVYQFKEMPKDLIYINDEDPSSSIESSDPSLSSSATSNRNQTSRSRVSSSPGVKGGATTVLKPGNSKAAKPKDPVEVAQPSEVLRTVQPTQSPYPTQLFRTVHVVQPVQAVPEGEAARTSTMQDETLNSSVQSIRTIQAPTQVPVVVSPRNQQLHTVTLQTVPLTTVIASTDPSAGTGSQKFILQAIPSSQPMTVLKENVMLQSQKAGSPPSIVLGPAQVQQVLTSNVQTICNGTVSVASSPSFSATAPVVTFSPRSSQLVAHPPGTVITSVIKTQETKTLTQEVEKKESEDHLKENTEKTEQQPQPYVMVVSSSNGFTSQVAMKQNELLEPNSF
UniProt P10242: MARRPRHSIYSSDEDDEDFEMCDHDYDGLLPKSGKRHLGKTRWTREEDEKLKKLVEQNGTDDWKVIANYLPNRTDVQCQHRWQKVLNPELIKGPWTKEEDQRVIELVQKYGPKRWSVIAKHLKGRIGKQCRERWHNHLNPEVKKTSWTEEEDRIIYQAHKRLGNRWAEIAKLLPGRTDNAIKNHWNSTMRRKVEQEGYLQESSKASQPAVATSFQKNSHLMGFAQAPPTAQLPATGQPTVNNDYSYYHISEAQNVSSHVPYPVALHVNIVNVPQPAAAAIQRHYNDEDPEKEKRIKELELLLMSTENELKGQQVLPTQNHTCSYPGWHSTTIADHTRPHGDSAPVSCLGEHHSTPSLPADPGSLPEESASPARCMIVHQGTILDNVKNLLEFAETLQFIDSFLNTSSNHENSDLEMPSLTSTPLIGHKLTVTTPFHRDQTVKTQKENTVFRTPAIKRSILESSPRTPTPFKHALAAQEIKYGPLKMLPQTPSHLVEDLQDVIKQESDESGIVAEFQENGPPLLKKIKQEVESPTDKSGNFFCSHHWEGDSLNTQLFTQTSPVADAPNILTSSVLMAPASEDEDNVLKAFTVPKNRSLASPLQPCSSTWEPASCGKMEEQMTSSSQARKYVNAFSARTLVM
UniProt P03372: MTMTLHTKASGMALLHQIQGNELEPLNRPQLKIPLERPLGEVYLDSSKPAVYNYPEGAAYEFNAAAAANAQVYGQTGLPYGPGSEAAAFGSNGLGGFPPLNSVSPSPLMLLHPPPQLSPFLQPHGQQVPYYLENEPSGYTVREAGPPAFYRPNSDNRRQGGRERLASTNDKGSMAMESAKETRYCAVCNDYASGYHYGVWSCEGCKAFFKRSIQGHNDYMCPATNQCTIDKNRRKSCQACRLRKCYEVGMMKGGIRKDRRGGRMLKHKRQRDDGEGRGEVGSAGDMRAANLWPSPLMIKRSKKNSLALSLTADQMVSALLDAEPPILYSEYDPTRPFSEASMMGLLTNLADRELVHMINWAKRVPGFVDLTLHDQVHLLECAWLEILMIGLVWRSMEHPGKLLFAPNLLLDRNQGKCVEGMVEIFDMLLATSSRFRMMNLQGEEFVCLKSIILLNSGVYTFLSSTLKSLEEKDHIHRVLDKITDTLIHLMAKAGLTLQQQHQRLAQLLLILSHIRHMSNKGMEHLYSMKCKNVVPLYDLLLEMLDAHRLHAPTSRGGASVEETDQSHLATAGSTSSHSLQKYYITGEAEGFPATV

binding [1]: binds
binding [2]: binds
binding [3]: binds weakly
binding [4]: binds weakly
Substance: estrogen receptor α (from UniProt P03372 1-595)
